Assay results published in the supplement of paper PMC4604168 (melanoma cell lines).
This is one part of the list. Repeats are few or missing, and single values can be far off.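 Cells were imaged in 1,536-well plates, and nuclei stained with an antibody against cleaved PARP were counted against all DNA-stained nuclei to give the apoptosis fraction. Screening doses were chosen to leave most cells alive, and resting and induced cleaved-PARP levels differ strongly between cell lines.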

Experiments:
Test in all cases: cleaved PARP positive nuclei fraction relative to DMSO control; melanoma cells; higher = more apoptosis
Details in all cases: library dose: low library concentration; 72 h
501Mel = system: 501Mel
A101D = system: A101D
A2058 = system: A2058
A375 = system: A375
C32 = system: C32
CBRC013 = system: CBRC013 (line from a melanoma biopsy)
CBRC014 = system: CBRC014 (line from a melanoma biopsy)
CBRC016 = system: CBRC016 (line from a melanoma biopsy)
CBRC017 = system: CBRC017 (line from a melanoma biopsy)
CBRC034 = system: CBRC034 (line from a melanoma biopsy)
COLO792 = system: COLO792
COLO800 = system: COLO800
COLO829 = system: COLO829
G361 = system: G361
IPC-298 = system: IPC-298
IST-MEL1 = system: IST-MEL1
LB2518-MEL = system: LB2518-MEL
LOXIMVI = system: LOXIMVI

Compound | cleaved PARP positive nuclei fraction (501Mel) [%] | cleaved PARP positive nuclei fraction (A101D) [%] | cleaved PARP positive nuclei fraction (A2058) [%] | cleaved PARP positive nuclei fraction (A375) [%] | cleaved PARP positive nuclei fraction (C32) [%] | cleaved PARP positive nuclei fraction (CBRC013) [%] | cleaved PARP positive nuclei fraction (CBRC014) [%] | cleaved PARP positive nuclei fraction (CBRC016) [%] | cleaved PARP positive nuclei fraction (CBRC017) [%] | cleaved PARP positive nuclei fraction (CBRC034) [%] | cleaved PARP positive nuclei fraction (COLO792) [%] | cleaved PARP positive nuclei fraction (COLO800) [%] | cleaved PARP positive nuclei fraction (COLO829) [%] | cleaved PARP positive nuclei fraction (G361) [%] | cleaved PARP positive nuclei fraction (IPC-298) [%] | cleaved PARP positive nuclei fraction (IST-MEL1) [%] | cleaved PARP positive nuclei fraction (LB2518-MEL) [%] | cleaved PARP positive nuclei fraction (LOXIMVI) [%]
CC1(C)NC(=O)N(c2ccc([N+](=O)[O-])c(C(F)(F)F)c2)C1=O [nilutamide] + CCN(CC)CCCCNc1ncc2cc(-c3cc(OC)cc(OC)c3)c(NC(=O)NC(C)(C)C)nc2n1 [PD173074] (first compound 1 µM, partner dose 0.1 µM) | 94.7 | 80.1 | 129 | 91.7 | 32.9 | 204 | 76.3 | 18.7 | 64.6 | 122 | 40.5 | 87.2 | 75.6 | 96.7 | 81.2 | 26.4 | 77 | 69.6
COCC[n+]1c2c(n(Cc3cnccn3)c1C)C(=O)c1ccccc1C2=O + O=C(O)C(=O)Nc1sc2c(c1C(=O)O)CCNC2 [TCS401] (first compound 0.0004 µM, partner dose 1.66667 µM) | 87.1 | 116 | 278 | 235 | 142 | 94.5 | 72.7 | 182 | 47.3 | 176 | 72 | 152 | 124 | 68.2 | 35.7 | 48.9 | 88.6 | 114
CC1(C)NC(=O)N(c2ccc([N+](=O)[O-])c(C(F)(F)F)c2)C1=O [nilutamide] + O=C1NC(=O)/C(=C/c2ccc(-c3ccc(F)cc3O)o2)S1 [AS252424] (first compound 1 µM, partner dose 1 µM) | 41.7 | 77 | 93.3 | 143 | 96.9 | 200 | 86.3 | 38.6 | 89.7 | 120 | 98.9 | 86.4 | 116 | 54.7 | 290 | 56.5 | 86.8 | 70.6
O=C(CCCCCCC(=O)Nc1ccccc1)NO [vorinostat] + O=C(O)C(=O)Nc1sc2c(c1C(=O)O)CCNC2 [TCS401] (first compound 0.08 µM, partner dose 1.66667 µM) | 135 | 218 | 102 | 78.6 | 145 | 40.7 | 86.8 | 58 | 44.8 | 106 | 64 | 52.2 | 183 | 142 | 126 | 123 | 160 | 88.1
NC(=O)Nc1cc(-c2cccc(F)c2)sc1C(=O)N[C@H]1CCCNC1 + COc1ccc2c(c1)CCC1C2CCC2(C)C(NCCCCCCN3C(=O)C=CC3=O)CCC12 [U73122] (first compound 0.02 µM, partner dose 0.4 µM) | 87.5 | 58 | 42.7 | 62.4 | 198 | 118 | 131 | 70.2 | 91.3 | 87.9 | 109 | 123 | 198 | 72.2 | 73.3 | 26.2 | 117 | 79.2
CC1(C)NC(=O)N(c2ccc([N+](=O)[O-])c(C(F)(F)F)c2)C1=O [nilutamide] + N#Cc1c(O)c2c(-c3ccc(-c4ccccc4O)cc3)csc2[nH]c1=O [A769662] (first compound 1 µM, partner dose 2 µM) | 226 | 81.2 | 109 | 129 | 47.8 | 95.5 | 102 | 125 | 71.4 | 74.3 | 83.4 | 75.9 | 130 | 93.5 | 105 | 101 | 38.3 | 26.1
COCC[n+]1c2c(n(Cc3cnccn3)c1C)C(=O)c1ccccc1C2=O + O=S(=O)(c1ccccc1)N(CC(F)(F)F)c1ccc(C(O)(C(F)(F)F)C(F)(F)F)cc1 [T0901317] (first compound 0.0004 µM, partner dose 1.4 µM) | 61.4 | 60.1 | 422 | 362 | 135 | 71.1 | 87.1 | 92.6 | 298 | 83.2 | 66.2 | 424 | 178 | 106 | 125 | 93.4 | 46.3 | 113
O=C(Nc1cccc(Cl)c1)Nc1ncc(CCNc2ncnc3ccsc23)s1 + Oc1nc(-c2ccc(C(F)(F)F)cc2)nc2c1CSCC2 [XAV939] (first compound 0.0008 µM, partner dose 2 µM) | 101 | 57.6 | 97.7 | 15.9 | 62.1 | 45 | 104 | 49 | 72.1 | 118 | 121 | 107 | 123 | 33.1 | 61 | 45.8 | 79.9 | 40.8
Cn1c(Nc2ccc(C(F)(F)F)cc2)nc2cc(Oc3ccnc(-c4ncc(C(F)(F)F)[nH]4)c3)ccc21 + COc1ccc2c(c1)CCC1C2CCC2(C)C(NCCCCCCN3C(=O)C=CC3=O)CCC12 [U73122] (first compound 0.08 µM, partner dose 0.4 µM) | 243 | 90.5 | 172 | 752 | 54.6 | 138 | 135 | 496 | 126 | 459 | 550 | 158 | 172 | 250 | 145 | 236 | 194 | 183
